# Measured values as given in the supplement of paper PMC12823440, “Inhibitors supercharge kinase turnover through native proteolytic circuits” (Nature, 2025).
# Chains of the proteins cited; added tags and fusions are not shown. Lines headed by an entry give the natural chain unless they say otherwise; changes in a name come on top.
# UniProt P09619, whole entry: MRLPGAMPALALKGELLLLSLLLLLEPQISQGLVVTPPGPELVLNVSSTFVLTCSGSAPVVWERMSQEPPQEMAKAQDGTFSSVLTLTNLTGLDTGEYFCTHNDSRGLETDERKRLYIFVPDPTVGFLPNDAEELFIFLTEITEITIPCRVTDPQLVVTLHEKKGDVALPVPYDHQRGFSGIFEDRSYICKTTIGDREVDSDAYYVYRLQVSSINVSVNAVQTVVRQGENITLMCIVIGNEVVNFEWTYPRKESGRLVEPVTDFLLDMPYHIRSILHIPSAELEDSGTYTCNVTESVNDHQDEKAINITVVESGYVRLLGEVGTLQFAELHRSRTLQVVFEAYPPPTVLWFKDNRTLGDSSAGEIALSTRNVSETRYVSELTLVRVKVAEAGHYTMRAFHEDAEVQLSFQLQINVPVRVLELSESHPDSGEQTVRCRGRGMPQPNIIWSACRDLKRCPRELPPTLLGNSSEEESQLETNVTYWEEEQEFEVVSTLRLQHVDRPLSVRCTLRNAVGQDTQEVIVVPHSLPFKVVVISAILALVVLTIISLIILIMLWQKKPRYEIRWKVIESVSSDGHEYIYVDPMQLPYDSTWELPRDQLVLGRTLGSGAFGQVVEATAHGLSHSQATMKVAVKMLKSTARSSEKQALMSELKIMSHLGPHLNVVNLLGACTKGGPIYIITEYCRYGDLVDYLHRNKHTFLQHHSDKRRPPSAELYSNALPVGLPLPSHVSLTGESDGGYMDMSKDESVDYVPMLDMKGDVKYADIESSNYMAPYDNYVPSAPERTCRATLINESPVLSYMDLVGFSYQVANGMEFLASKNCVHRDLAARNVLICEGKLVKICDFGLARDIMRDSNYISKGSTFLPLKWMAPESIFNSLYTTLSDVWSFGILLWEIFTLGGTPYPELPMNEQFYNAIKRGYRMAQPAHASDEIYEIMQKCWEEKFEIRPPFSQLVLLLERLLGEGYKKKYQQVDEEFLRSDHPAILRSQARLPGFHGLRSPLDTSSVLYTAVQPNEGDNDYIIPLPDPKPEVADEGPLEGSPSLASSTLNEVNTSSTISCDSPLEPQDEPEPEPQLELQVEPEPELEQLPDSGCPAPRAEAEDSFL
# UniProt P42680: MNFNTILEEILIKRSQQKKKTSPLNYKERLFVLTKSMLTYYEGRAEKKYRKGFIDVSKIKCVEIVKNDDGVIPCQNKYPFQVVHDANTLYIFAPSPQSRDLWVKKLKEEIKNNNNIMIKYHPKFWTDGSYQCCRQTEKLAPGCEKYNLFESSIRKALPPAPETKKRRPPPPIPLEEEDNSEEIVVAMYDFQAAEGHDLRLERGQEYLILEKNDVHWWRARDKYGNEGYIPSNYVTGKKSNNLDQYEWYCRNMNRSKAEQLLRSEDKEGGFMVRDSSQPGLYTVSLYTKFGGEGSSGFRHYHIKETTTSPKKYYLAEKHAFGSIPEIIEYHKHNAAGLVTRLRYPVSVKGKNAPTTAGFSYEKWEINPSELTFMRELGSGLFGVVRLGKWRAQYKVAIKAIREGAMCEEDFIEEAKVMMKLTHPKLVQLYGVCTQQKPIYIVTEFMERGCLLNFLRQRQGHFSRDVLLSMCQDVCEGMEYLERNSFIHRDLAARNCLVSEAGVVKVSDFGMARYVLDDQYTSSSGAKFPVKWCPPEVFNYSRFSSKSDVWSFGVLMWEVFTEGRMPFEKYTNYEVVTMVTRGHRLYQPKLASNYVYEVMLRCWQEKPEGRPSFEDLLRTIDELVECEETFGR
# UniProt Q9UQM7, whole entry: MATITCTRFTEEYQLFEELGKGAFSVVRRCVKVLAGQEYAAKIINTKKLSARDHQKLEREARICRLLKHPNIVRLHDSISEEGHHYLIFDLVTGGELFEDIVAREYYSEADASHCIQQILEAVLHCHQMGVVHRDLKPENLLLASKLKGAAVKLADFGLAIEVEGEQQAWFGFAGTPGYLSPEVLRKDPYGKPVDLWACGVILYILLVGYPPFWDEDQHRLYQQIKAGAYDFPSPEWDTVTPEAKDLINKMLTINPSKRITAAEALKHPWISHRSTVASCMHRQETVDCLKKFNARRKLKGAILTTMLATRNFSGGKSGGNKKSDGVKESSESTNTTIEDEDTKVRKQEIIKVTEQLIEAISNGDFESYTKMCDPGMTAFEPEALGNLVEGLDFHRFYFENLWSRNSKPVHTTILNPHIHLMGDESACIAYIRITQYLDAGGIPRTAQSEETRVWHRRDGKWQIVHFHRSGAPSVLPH
# UniProt P23458: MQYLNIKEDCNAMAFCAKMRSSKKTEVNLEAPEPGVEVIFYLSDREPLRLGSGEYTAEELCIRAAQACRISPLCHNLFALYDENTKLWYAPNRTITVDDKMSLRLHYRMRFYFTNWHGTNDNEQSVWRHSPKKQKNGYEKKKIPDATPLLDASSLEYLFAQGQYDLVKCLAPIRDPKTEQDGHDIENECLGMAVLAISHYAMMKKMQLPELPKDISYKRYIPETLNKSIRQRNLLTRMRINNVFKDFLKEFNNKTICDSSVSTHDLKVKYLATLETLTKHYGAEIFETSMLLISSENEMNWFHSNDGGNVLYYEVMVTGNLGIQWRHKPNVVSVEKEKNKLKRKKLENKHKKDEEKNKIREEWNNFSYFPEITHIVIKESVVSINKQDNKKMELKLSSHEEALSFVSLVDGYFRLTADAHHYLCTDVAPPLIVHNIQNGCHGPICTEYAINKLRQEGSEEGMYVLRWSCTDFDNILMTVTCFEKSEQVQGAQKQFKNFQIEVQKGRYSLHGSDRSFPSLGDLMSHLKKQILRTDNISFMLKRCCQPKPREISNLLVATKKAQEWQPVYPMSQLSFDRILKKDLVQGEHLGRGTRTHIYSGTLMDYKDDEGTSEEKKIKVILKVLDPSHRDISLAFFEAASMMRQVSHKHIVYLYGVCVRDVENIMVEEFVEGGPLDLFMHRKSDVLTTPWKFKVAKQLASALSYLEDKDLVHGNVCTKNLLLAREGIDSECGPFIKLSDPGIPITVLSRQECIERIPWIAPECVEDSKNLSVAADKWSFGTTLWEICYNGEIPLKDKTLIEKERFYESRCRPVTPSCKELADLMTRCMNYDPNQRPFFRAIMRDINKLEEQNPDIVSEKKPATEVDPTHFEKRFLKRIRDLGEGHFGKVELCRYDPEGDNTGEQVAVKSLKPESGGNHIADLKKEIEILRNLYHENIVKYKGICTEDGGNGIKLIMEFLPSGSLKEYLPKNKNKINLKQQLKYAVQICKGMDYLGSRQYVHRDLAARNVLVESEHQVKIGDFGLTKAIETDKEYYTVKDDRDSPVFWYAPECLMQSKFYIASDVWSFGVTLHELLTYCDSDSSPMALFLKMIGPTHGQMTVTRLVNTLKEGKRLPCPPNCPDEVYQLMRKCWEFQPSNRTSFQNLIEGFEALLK
# UniProt Q9Y463, whole entry, looked up: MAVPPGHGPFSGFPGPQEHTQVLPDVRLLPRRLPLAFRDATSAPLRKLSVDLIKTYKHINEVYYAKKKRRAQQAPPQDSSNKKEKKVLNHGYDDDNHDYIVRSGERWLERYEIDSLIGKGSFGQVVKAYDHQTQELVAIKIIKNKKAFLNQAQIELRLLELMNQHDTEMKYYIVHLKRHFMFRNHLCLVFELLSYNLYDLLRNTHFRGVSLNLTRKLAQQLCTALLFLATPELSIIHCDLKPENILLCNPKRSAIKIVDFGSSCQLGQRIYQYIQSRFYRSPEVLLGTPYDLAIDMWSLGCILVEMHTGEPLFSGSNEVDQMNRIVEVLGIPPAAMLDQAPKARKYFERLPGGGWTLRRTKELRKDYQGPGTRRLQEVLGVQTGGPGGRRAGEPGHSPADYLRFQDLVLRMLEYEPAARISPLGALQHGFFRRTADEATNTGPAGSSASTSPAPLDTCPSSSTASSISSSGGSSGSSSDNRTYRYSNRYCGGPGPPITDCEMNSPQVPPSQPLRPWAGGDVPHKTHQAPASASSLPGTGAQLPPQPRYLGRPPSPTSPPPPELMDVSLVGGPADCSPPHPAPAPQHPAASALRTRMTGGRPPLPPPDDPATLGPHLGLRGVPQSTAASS
# UniProt Q15208: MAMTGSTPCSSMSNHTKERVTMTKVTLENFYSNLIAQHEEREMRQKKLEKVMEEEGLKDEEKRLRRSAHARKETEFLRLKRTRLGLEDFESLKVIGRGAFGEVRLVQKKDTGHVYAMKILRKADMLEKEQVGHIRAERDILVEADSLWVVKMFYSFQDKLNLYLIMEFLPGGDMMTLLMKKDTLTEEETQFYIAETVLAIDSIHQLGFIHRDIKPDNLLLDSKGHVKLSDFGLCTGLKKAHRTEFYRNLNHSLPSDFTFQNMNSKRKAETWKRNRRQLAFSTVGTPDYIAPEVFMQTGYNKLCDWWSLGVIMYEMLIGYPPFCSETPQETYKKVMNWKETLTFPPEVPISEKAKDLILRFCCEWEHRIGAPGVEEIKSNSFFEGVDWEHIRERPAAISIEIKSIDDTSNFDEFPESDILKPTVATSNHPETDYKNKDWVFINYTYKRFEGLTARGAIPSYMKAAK
# UniProt P31152, whole entry: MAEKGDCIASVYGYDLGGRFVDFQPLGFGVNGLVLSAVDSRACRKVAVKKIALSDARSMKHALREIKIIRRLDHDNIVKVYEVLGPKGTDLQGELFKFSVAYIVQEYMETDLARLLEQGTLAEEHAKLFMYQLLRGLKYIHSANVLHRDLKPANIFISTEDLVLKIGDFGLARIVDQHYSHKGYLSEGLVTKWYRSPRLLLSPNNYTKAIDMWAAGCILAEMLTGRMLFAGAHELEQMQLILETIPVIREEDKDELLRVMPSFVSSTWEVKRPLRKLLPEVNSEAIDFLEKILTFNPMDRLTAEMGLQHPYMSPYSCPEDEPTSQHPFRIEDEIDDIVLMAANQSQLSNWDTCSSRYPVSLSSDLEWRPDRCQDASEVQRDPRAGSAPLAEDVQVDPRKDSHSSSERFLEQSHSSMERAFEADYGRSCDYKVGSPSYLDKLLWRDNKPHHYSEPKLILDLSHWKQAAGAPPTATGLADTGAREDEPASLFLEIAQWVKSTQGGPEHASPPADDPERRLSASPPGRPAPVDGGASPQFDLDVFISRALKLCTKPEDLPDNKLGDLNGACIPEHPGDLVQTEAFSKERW
# UniProt Q00534, whole entry: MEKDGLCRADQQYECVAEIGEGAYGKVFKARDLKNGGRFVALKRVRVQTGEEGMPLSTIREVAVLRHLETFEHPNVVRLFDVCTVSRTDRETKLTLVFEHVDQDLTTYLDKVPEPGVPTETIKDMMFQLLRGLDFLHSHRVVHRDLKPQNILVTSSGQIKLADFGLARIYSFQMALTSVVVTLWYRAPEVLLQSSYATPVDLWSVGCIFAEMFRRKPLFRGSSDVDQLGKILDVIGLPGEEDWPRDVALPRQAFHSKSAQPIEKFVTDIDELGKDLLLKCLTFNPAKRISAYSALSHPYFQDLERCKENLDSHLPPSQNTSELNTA
# UniProt O75460: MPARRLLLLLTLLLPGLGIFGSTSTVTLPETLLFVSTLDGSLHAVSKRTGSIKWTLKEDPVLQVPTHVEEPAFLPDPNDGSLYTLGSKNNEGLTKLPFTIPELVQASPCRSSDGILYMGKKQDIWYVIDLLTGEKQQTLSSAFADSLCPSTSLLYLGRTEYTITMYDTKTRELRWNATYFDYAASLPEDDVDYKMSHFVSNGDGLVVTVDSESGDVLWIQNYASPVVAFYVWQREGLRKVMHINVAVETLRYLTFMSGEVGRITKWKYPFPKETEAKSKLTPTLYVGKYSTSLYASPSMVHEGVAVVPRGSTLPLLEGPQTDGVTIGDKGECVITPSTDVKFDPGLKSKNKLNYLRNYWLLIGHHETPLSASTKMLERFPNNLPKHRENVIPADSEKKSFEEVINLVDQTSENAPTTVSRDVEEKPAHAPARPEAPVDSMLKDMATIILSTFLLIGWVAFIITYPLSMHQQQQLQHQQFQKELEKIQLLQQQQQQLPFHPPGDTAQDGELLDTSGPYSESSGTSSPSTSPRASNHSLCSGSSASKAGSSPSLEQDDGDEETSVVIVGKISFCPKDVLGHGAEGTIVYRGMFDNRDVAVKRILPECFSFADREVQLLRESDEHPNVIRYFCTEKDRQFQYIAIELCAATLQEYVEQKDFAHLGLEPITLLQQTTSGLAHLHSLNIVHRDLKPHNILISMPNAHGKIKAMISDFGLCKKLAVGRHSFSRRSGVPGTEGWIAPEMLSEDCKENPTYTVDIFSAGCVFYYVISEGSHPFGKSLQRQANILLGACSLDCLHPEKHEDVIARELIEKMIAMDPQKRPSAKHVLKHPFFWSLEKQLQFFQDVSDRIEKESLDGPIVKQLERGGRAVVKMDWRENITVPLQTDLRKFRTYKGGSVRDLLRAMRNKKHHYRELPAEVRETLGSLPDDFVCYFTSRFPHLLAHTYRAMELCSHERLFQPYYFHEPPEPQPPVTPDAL
# This is one part of the list. The calls rarely recur for the same compound in another form.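 Kinases, fused to nanoluciferase, were expressed in K562 cells; luminescence was measured every 4 h from 2 to 18 h as percent of control (DMSO = 100%, positive control = 0%). A time point is decreased if signal falls significantly (2 sigma). Hits were called by the authors by a rule that is not shown; the count of time points alone does not decide it.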
# Columns and labels:
# Assay in all cases: number of time points (of 5) at which kinase-Nluc abundance scored as decreased, DMSO-normalised (count); higher = more persistent destabilization
# [1] = compound: CC(C)N(CCC(=O)c1ccc2ccccc2c1)Cc1ccccc1; conditions: 10 µM; K562; 2-18 h
# [2] = compound: CC(C)[C@@](C)(O)[C@@H]1CN(c2nc(-c3[nH]nc4ncccc34)c(F)cc2Cl)CCN1; conditions: 10 µM; K562; 2-18 h
# Torkinib = compound: CC(C)n1nc(-c2cc3cc(O)ccc3[nH]2)c2c(N)ncnc21 [Torkinib]; conditions: 2.5 µM; K562; 2-18 h
# [3] = compound: CC1(C)C(=O)N([C@H]2CCc3c(O)cccc32)c2nc(Nc3cccc(CN4CCCC4)c3)ncc21; conditions: 2.5 µM; K562; 2-18 h
# Motesanib (Diphosphate) = compound: CC1(C)CNc2cc(NC(=O)c3cccnc3NCc3ccncc3)ccc21 [Motesanib (Diphosphate)]; conditions: 2.5 µM; K562; 2-18 h
# Motesanib = compound: CC1(C)CNc2cc(NC(=O)c3cccnc3NCc3ccncc3)ccc21 [Motesanib]; conditions: 2.5 µM; K562; 2-18 h
# [4] = compound: CCCCCC1CC1CC1CC1CCCCCCCC(=O)OC; conditions: 10 µM; K562; 2-18 h
# [5] = compound: CCCCCCCCCCCCc1ccc(S(=O)(=O)Nc2nncs2)cc1; conditions: 10 µM; K562; 2-18 h
# [6] = compound: CCCOc1ccc(C=C2SC(=O)NC2=O)cc1; conditions: 10 µM; K562; 2-18 h
# Sunitinib = compound: CCN(CC)CCNC(=O)c1c(C)[nH]c(/C=C2\C(=O)Nc3ccc(F)cc32)c1C [Sunitinib]; conditions: 2.5 µM; K562; 2-18 h
# Pelitinib = compound: CCOc1cc2ncc(C#N)c(Nc3ccc(F)c(Cl)c3)c2cc1NC(=O)/C=C/CN(C)C [Pelitinib]; conditions: 2.5 µM; K562; 2-18 h
# JNK Inhibitor VIII = compound: CCOc1nc(NC(=O)Cc2cc(OC)ccc2OC)cc(N)c1C#N [JNK Inhibitor VIII]; conditions: 10 µM; K562; 2-18 h
# [7] = compound: CC[C@@H]1C(=O)N(C)c2cnc(Nc3ccc(C(=O)NC4CCN(C)CC4)cc3OC)nc2N1C1CCCC1; conditions: 10 µM; K562; 2-18 h
# [8] = compound: CCc1cc2c(cc1-c1cnn(CC(=O)N(C)C)c1)C(C)(C)c1[nH]c3cc(C#N)ccc3c1C2=O; conditions: 2.5 µM; K562; 2-18 h
# Ripretinib = compound: CCn1c(=O)c(-c2cc(NC(=O)Nc3ccccc3)c(F)cc2Br)cc2cnc(NC)cc21 [Ripretinib]; conditions: 10 µM; K562; 2-18 h
# Dovitinib (lactate) = compound: CN1CCN(c2ccc3nc(-c4c(N)c5c(F)cccc5[nH]c4=O)[nH]c3c2)CC1 [Dovitinib (lactate)]; conditions: 2.5 µM; K562; 2-18 h
# Dovitinib = compound: CN1CCN(c2ccc3nc(-c4c(N)c5c(F)cccc5[nH]c4=O)[nH]c3c2)CC1 [Dovitinib]; conditions: 2.5 µM; K562; 2-18 h
# Sorafenib (Tosylate) = compound: CNC(=O)c1cc(Oc2ccc(NC(=O)Nc3ccc(Cl)c(C(F)(F)F)c3)cc2)ccn1 [Sorafenib (Tosylate)]; conditions: 10 µM; K562; 2-18 h
# Sotrastaurin = compound: CN1CCN(c2nc(C3=C(c4c[nH]c5ccccc45)C(=O)NC3=O)c3ccccc3n2)CC1 [Sotrastaurin]; conditions: 2.5 µM; K562; 2-18 h
# [9] = compound: CN(c1ccnc(Nc2cc(N3CCOCC3)cc(N3CCOCC3)c2)n1)c1cccc2[nH]ncc12; conditions: 2.5 µM; K562; 2-18 h
Target,number of time points [1],number of time points [2],number of time points (Torkinib),number of time points [3],number of time points (Motesanib (Diphosphate)),number of time points (Motesanib),number of time points [4],number of time points [5],number of time points [6],number of time points (Sunitinib),number of time points (Pelitinib),number of time points (JNK Inhibitor VIII),number of time points [7],number of time points [8],number of time points (Ripretinib),number of time points (Dovitinib (lactate)),number of time points (Dovitinib),number of time points (Sorafenib (Tosylate)),number of time points (Sotrastaurin),number of time points [9]
PDGFRB (UniProt P09619),0,1,0,3,0,0,0,0,0,0,0,0,1,0,0,0,0,0,,
ARAF (UniProt P10398),0,0,0,0,0,0,0,0,0,0,0,0,0,0,0,0,0,0,0,
TEC (UniProt P42680),0,0,0,0,0,0,0,0,0,0,0,0,0,0,0,0,0,0,0,
CAMK2A (UniProt Q9UQM7),0,0,0,0,0,0,0,0,0,0,0,0,0,0,0,0,0,0,0,
ERBB4_R711C (clone: ERBB4_mut) (UniProt Q15303),0,0,0,4,0,0,0,0,0,0,0,0,3,0,0,,,0,0,
JAK1 (UniProt P23458),0,0,0,1,0,0,0,0,0,0,0,0,3,0,0,0,0,0,0,
DYRK1B (UniProt Q9Y463),0,0,0,1,0,0,0,0,0,0,0,0,3,0,0,0,0,0,0,
ALK (UniProt Q9UM73),0,2,0,3,0,0,0,0,0,0,0,0,2,0,,0,0,0,0,
STK38 (UniProt Q15208),0,1,0,0,0,0,0,0,0,0,0,0,0,0,0,0,0,0,0,
INSRR (UniProt P14616),0,0,0,4,0,0,0,0,0,0,0,0,2,0,0,0,0,0,0,
RAF1 (UniProt P04049),0,0,0,4,0,0,0,0,0,0,0,0,2,0,0,0,0,0,0,
AURKC (UniProt Q9UQB9),0,0,0,0,0,0,0,0,0,0,0,0,0,0,0,0,0,0,0,
MAPK4 (UniProt P31152),0,0,0,0,0,0,0,0,0,0,0,0,1,1,0,0,0,0,0,
BRAF_V600E,0,0,0,2,0,0,0,0,0,0,0,0,,0,5,0,0,0,0,1
CDK6 (UniProt Q00534),0,0,0,0,0,0,0,0,0,0,0,0,0,0,2,0,0,0,0,
ERN1 (UniProt O75460),0,0,0,2,0,0,0,1,0,0,0,0,0,0,0,0,0,0,0,
